Data published in publication PMC11852955.
These are yes or no findings as the source states them, for the method shown. In cells and extracts the contact can be indirect.

Tests used:
[1] = target: T1, FosB (mouse (endogenous in DRG)) (UniProt P13346); experiment: co-IP; lysates of mouse DRG (control, STZ diabetic, Ascl1/Lhx6-treated STZ groups); immunoprecipitation buffer with Tris-HCl, NaCl, MgCl2, EDTA, Triton X-100, glycerol; precleared with protein A/G PLUS-agarose; immunoprecipitated with rabbit anti-c-Fos, anti-JunD, anti-FosB, anti-FoxK1, anti-GNG3; washed with 50 mM Tris-HCl pH 7.4, 150 mM NaCl, 10 mM EDTA, 1% NP-40
T1 sequence: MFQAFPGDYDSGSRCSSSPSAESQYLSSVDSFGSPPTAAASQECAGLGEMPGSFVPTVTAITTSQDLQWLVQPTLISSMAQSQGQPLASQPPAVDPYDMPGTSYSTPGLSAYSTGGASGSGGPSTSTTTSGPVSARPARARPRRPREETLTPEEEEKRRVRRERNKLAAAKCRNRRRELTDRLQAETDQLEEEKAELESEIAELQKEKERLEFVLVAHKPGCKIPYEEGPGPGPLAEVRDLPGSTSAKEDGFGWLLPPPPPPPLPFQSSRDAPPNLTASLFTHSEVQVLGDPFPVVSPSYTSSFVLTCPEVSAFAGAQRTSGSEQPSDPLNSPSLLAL

[2] = target: T2, JunD (mouse (endogenous in DRG)) (UniProt P15066); experiment: as above
T2 sequence: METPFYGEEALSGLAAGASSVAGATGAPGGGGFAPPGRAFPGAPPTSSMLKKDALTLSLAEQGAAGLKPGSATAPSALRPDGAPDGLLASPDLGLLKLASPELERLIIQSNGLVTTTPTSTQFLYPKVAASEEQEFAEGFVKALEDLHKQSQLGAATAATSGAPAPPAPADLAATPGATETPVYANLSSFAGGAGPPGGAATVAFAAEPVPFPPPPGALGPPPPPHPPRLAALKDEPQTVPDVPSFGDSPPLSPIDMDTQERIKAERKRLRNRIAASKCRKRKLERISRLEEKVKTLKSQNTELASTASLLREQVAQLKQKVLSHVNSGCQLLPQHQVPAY

binding [1]: no binding | binding [2]: no binding
Substance: Foxn3 (mouse (endogenous in DRG))
